{"source": "patent US11701355B2", "about": "“Levosimendan for treating pulmonary hypertension with heart failure with preserved ejection fraction (PH-HFpEF)” (Tenax Therapeutics, Inc., priority 2019, dated 2023)", "origin": "cited, not measured here", "test_system": "phosphodiesterase-3 (PDE3)", "conditions": "in vitro, classical PDE inhibitors; cited from earlier work", "note": "Some results were stated once for a whole list of compounds, not compound by compound."}
{"smiles": "Nc1cc(-c2ccncc2)c[nH]c1=O", "note": "[amrinone]", "values": [{"measurement": "selectivity PDE3 vs. PDE4", "value": "≥ 17", "unit": "fold"}]}
